Values from PubChem BioAssay AID1259308 (NCATS, 2017)
Here is a random part of about 59,000 reagents. About 1,510 of them (2.6%) count as active. 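Calls use total luciferase alone and ignore viability, so some active siRNAs may act by altering cell number.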 Entries without a mark were called inactive. Reagents against one gene are numbered here. Further read-outs or replicates are left out here.

Test: 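Knock-downs that increase output of a recombinant reporter protein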 (primary screen)
System: human HEK293 embryonic kidney cells stably expressing firefly luciferase (HEK-CMV-Luc2-Hygro)
Reagents: single siRNA against human genes, 0.8 pmol siRNA per well
Timing: 72 h
Measured: 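Luciferase light (ONE-Glo) measured on one replicate plate set and viability (CellTiter-Glo) on the other, scaled to a negative control siRNA, with robust z-scores and luciferase per cell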
Scale: total luciferase, z-score: higher = more reporter protein produced
Active means: 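Active when the median/MAD z-score for overall luciferase is greater than 3; a gene was taken forward for validation with new siRNAs if at least two of its three siRNAs passed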
Meaning of the calls: active = raised luciferase; inactive = no rise

POLD2 #1 — total luciferase, z-score = -0.119
POLD2 #2 — total luciferase, z-score = -0.782
POLD2 #3 — total luciferase, z-score = 0.0768
OTUB1 #1 — total luciferase, z-score = 0.919
OTUB1 #2 — total luciferase, z-score = 1.49
OTUB1 #3 — total luciferase, z-score = 1.14
MRPS34 #1 — total luciferase, z-score = -1.93
MRPS34 #2 — total luciferase, z-score = 0.54
MRPS34 #3 — total luciferase, z-score = 0.509
ARL14 #1 — total luciferase, z-score = 0.413
ARL14 #2 — total luciferase, z-score = 0.285
ARL14 #3 — total luciferase, z-score = -1.21

3 entries from above, arranged by “total luciferase, z-score”, descending.
ARL14 #1 — total luciferase, z-score = 0.413
ARL14 #2 — total luciferase, z-score = 0.285
ARL14 #3 — total luciferase, z-score = -1.21

Continued.
TEPSIN #1 — total luciferase, z-score = 0.708
TEPSIN #2 — total luciferase, z-score = -0.0344
TEPSIN #3 — total luciferase, z-score = 0.397
LRRC14 #1 — total luciferase, z-score = 0.204
LRRC14 #2 — total luciferase, z-score = -0.58
LRRC14 #3 — total luciferase, z-score = 1.17
ZBED8 #1 — total luciferase, z-score = -0.883
ZBED8 #2 — total luciferase, z-score = 0.562
ZBED8 #3 — total luciferase, z-score = 0.169
ZNF451 #1 — total luciferase, z-score = 0.0598
ZNF451 #2 — total luciferase, z-score = 0.0985
ZNF451 #3 — total luciferase, z-score = -1.85
SCAP #1 — total luciferase, z-score = 0.113
SCAP #2 — total luciferase, z-score = 0.413
SCAP #3 — total luciferase, z-score = 1.36
THSD1 #1 — total luciferase, z-score = 0.678
THSD1 #2 — total luciferase, z-score = 0.975
THSD1 #3 — total luciferase, z-score = 0.914
UNK #1 — total luciferase, z-score = 2.66
UNK #2 — total luciferase, z-score = 0.113
UNK #3 — total luciferase, z-score = -0.00719
